From patent US11266170B2, “Sweetener and flavor compositions, methods of making and methods of use thereof” (EPC Natural Products Co., Ltd., priority 2018, dated 2022)

Assay: HPLC/DAD/MS detection of MRI (Amadori) products (Examples 51, 53, 57, 58)
Assay type: physicochemical
Conditions: LC/MS; MRI of amino acid + carbohydrate

SMILES | MRI (Amadori) products Detected in Experiments
O=C(O)C(Cc1ccccc1)NCC(O)=C(O)C(O)CO (stereo not drawn) [Phe/Xyl] | Yes
CCC(C)C(NCC(O)=C(O)C(O)C(O)CO)C(=O)O (stereo not drawn) [Ile/Glu] | Yes
O=C(O)C(Cc1ccccc1)NCC(O)=C(O)C(O)C(O)CO (stereo not drawn) [Phe/Glu] | Yes
O=C(O)CC(NCC(O)=C(O)C(O)CO)C(=O)O (stereo not drawn) [Asp/Xyl] | Yes
O=C(O)CC(NCC(O)=C(O)C(O)C(O)CO)C(=O)O (stereo not drawn) [Asp/Glu] | Yes
CCC(C)C(NCC(O)=C(O)C(O)CO)C(=O)O (stereo not drawn) [Ile/Xyl] | Yes
